Assay results reported in article PMC6753678, “Fueling Open Innovation for Malaria Transmission-Blocking Drugs: Hundreds of Molecules Targeting Early Parasite Mosquito Stages” (Frontiers in Microbiology, 2019).
Where two headings read alike, the source gives them in different places.

What was measured:
[1] = system: P. berghei ookinete development
[2] = system: P. falciparum late stage (stages IV-V) gametocytes; test: P. falciparum late stage gametocyte ATP depletion assay (Pf GC-ATP)
[3] = system: P. falciparum female gametocytes; test: P. falciparum female gametogenesis assay (Pf FGAA); conditions: >10-fold green
[4] = unified cytotox / IC50, <10-fold red, >10-fold green
[5] = unified cytotox / Pf FGAA IC50, <10-fold selectivity red
[6] = unified cytotox / Pf GC-ATP IC50, red: <10-fold selectivity, green: >10-fold

CN1c2ccc([N+](=O)[O-])cc2C(C)(C)C12C=Cc1cc(Br)cc([N+](=O)[O-])c1O2 (stereo not drawn) [TCMDC-124178]
Assay tox ratio Pb ODA [1, 4]: 18.19
Assay tox ratio Pf GC-ATP [2, 4]: 26.85

Cl.Cl.c1ccc2c(NCCCCCCNc3c4ccccc4nc4ccccc34)c3ccccc3nc2c1 [TCMDC-124285]
Assay tox ratio Pb ODA [1, 4]: 5.05
Assay tox ratio Pf GC-ATP [2, 4]: 30.67

Cl.c1ccc2c(NCCCCCCCCCNc3c4ccccc4nc4ccccc34)c3ccccc3nc2c1 [TCMDC-124286]
Assay tox ratio Pb ODA [1, 4]: 2.71
Assay tox ratio Pf FGAA ([3]; unified cytotox / IC50, <10-fold red): 3.06
Assay tox ratio Pf GC-ATP [2, 4]: 3.68

Cl.N#Cc1c(F)cc(N2CCC(NCC[C@H](N)Cc3ccc(F)c(F)c3)CC2)cc1F [TCMDC-132121]
Assay tox ratio Pf FGAA [3, 5]: 6.30

FC(F)c1nc2ccccc2n1-c1nc(N2CCOCC2)nc(N2CCOCC2)n1 [TCMDC-137004]
Assay tox ratio Pf GC-ATP [2, 6]: 0.29

CC(CO)(CO)NCc1cc2c3ccccc3c(CNC(C)(CO)CO)cc2c2ccccc12.CS(=O)(=O)O [TCMDC-137752]
Assay tox ratio Pf FGAA [3, 5]: 1.66

Cl.c1ccc2c(c1)cc(CNCCCN1CCN(CCCNCc3cc4ccccc4c4ccccc34)CC1)c1ccccc12 [TCMDC-137914]
Assay tox ratio Pf GC-ATP [2, 6]: 12.34

CC(C)(CN)c1cc(-c2ccc(Cl)c(O)c2)c(-c2ccncc2)o1.Cl [TCMDC-141334]
Assay tox ratio Pb ODA [1, 4]: 11.04

ON=C1CCc2cc(-c3cc(-c4ccc(OC5CCNCC5)cc4)oc3-c3ccncc3)ccc21 [TCMDC-141381]
Assay tox ratio Pb ODA [1]: 4.19

CN(C)CCN(C)C(=O)c1cc(-c2ccncc2)c(-c2ccc(Cl)c(O)c2)o1.Cl [TCMDC-141393]
Assay tox ratio Pb ODA [1]: 30.73

COc1ccc2nccc(NC(=O)C3(O)CCC(NCc4ccc5c(c4)NCCS5)CC3)c2n1.Cl (stereo not drawn) [TCMDC-141406]
Assay tox ratio Pb ODA (red: <10-fold selectivity; green: >10-fold) [1]: 69.90

O=C(Nc1ccc(Cl)cc1)c1cc(Cl)cc2nc(C(F)(F)F)[nH]c12 [TCMDC-141586]
Assay tox ratio Pb ODA [1, 4]: 0.56

CCN(CC)CCCNc1nccc(N(C)c2ccc(NC(=O)Nc3cc(C(F)(F)F)ccc3F)cc2)n1.O=C(O)C(F)(F)F [TCMDC-141634]
Assay tox ratio Pb ODA [1]: 0.31

Cc1cc(F)ccc1-c1nc(NCC(O)CNCCc2ccccc2)nc2c1ccc(=O)n2-c1c(F)cccc1F.O=C(O)C(F)(F)F (stereo not drawn) [TCMDC-141784]
Assay tox ratio Pb ODA [1, 4]: 3.02

Cc1cc(F)ccc1-c1nc(NCCCNCCc2ccccc2)nc2c1ccc(=O)n2-c1c(F)cccc1F.O=C(O)C(F)(F)F [TCMDC-141804]
Assay tox ratio Pb ODA [1, 4]: 16.60

COc1ccc2ncc(Cl)c(CCN3CCC(NCc4ccc5c(n4)NC(=O)CS5)CC3)c2c1.Cl [TCMDC-141807]
Assay tox ratio Pb ODA [1, 4]: 11.53

COc1ccc2ncc(Cl)c(CCN3CCC(NCc4ccc5c(n4)NC(=O)CO5)CC3)c2c1.Cl [TCMDC-141808]
Assay tox ratio Pb ODA (red: <10-fold selectivity; green: >10-fold) [1]: 1.06

COc1ccc2nccc(N3CCC(CCNCc4ccc5c(n4)NC(=O)CS5)CC3)c2n1.Cl [TCMDC-141944]
Assay tox ratio Pb ODA [1, 4]: 1.66

COc1c(F)ccc2ncc(Cl)c(CCN3CCC(NCc4ccc5c(n4)NC(=O)CS5)CC3)c12.Cl [TCMDC-141955]
Assay tox ratio Pb ODA [1, 4]: 12.63

Cl.O=C1CSc2ccc(CNC3CCN(CCc4c(Cl)cnc5ccc(Cl)cc45)CC3)nc2N1 [TCMDC-141959]
Assay tox ratio Pb ODA [1, 4]: 4.21

Cl.O=C1CSc2ccc(CNC3CCN(CCc4c(Cl)cnc5ccc(F)cc45)CC3)nc2N1 [TCMDC-141960]
Assay tox ratio Pb ODA [1, 4]: 12.78

O=C(O)CCSSc1cccc[n+]1[O-] [TCMDC-141973]
Assay tox ratio Pb ODA [1]: 10.07

Nc1nc(N)c2c(ccc3c2ccn3Cc2ccccc2)n1 [TCMDC-141977]
Assay tox ratio Pb ODA [1, 4]: 0.51

CCOc1ccc2[nH]c(C)cc(=NN=Cc3cccnc3)c2c1 [TCMDC-142047]
Assay tox ratio Pb ODA [1]: 3.35

O=c1c(Br)ccccc1Br [TCMDC-142246]
Assay tox ratio Pb ODA [1, 4]: 14.68

CC1=CC(=O)[C@@H](O)[C@]2(C)[C@H]3[C@@]4(O)OC[C@@]35[C@@H](C[C@@H]12)OC(=O)C[C@H]5[C@@H](C)[C@H]4O [TCMDC-142261]
Assay tox ratio Pb ODA [1]: 479.32
